Assay [1] deals with T1, V5-tagged recombinant Ac-FTT-2 (Ancylostoma caninum 14-3-3 protein) (Ancylostoma caninum) (UniProt C3V6I8).
T1 sequence: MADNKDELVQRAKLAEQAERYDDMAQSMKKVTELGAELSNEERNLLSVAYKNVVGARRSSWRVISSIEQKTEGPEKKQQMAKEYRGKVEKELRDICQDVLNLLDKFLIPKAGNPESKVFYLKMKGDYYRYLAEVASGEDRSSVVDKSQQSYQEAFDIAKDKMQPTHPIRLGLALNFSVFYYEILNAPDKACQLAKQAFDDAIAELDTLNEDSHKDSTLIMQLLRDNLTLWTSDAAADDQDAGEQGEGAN
Kind of assay: co-IP; reciprocal: anti-V5 resin on lysates of co-transfected HEK293 cells treated with 20% serum; same buffers; Western blot with DAF-16 antiserum and anti-V5/HRP. On the technique in general: In western blotting, separated proteins are transferred to a membrane and probed.

The target of assay [2] is FLAG-tagged A. caninum forkhead transcription factor DAF-16 (wild type) (Ancylostoma caninum) (UniProt B3G3K1). Kind of assay: co-IP; anti-FLAG M2 agarose on lysates of co-transfected HEK293 cells treated with 20% serum; lysis in 50 mM NaCl, 50 mM Tris-HCl pH 7.5, 0.1% NP-40, 5 mM EDTA with phosphatase and protease inhibitors; overnight at 4 C; Western blot for Ac-FTT-2 and with DAF-16 antiserum.

Assay [3] concerns the target FLAG-tagged Ac-DAF-16 S107A (Ancylostoma caninum). Described as above.
For assay [4], the target named is FLAG-tagged Ac-DAF-16 S107A/S381A (Ancylostoma caninum). The description is as above.
For assay [5], the target named is FLAG-tagged Ac-DAF-16 S107A/T312A (Ancylostoma caninum). The assay is described as above.
The target of assay [6] is FLAG-tagged Ac-DAF-16 S381A (Ancylostoma caninum). The assay is described as above.

No constants are given. Whether binding was seen depends on the method and setting. Binding seen in cells or lysates may run through a third protein. For part of these data: Binding can be weak; no strength is given. Where a sequence is shown, tags or fusion partners need not be part of it.

Consider two molecules from publication PMC2683825.

“FLAG-tagged A. caninum forkhead transcription factor DAF-16 (wild type) (from UniProt B3G3K1)”: in assay [1], the binding entry was “binds”.

B1: V5-tagged recombinant Ac-FTT-2 (Ancylostoma caninum 14-3-3 protein) (protein, UniProt C3V6I8 1-249)
chain: T1 sequence
Turning to B1, the binding entry was “binds” in assay [2]; “no binding” in assay [3]; “no binding” in assay [4]; “no binding” in assay [5]; “binds” in assay [6].
